Test results taken from article PMC6881172, “Allosteric modulation of nucleoporin assemblies by intrinsically disordered regions” (Science Advances, 2019).
Results are given in words; binding and its absence hold for the method and conditions named. For some of these results: Binding calls can cover weak binding; strength is not graded here. For some of these results: Where a sequence is shown, tags or fusion partners need not be part of it. Values belong to the molecule of their own block, whether it stands above or below them.

Legend:
[1] = molecular target: T1, Kap121 (full-length) (Saccharomyces cerevisiae) (UniProt P32337); assay: negative-stain EM; gel filtration-purified Kap121 or its complex with 53C, 53core, or 53core and Nic96 (equimolar), 2% uranyl acetate, 2D classes and 3D maps (RELION); both purified
T1 sequence: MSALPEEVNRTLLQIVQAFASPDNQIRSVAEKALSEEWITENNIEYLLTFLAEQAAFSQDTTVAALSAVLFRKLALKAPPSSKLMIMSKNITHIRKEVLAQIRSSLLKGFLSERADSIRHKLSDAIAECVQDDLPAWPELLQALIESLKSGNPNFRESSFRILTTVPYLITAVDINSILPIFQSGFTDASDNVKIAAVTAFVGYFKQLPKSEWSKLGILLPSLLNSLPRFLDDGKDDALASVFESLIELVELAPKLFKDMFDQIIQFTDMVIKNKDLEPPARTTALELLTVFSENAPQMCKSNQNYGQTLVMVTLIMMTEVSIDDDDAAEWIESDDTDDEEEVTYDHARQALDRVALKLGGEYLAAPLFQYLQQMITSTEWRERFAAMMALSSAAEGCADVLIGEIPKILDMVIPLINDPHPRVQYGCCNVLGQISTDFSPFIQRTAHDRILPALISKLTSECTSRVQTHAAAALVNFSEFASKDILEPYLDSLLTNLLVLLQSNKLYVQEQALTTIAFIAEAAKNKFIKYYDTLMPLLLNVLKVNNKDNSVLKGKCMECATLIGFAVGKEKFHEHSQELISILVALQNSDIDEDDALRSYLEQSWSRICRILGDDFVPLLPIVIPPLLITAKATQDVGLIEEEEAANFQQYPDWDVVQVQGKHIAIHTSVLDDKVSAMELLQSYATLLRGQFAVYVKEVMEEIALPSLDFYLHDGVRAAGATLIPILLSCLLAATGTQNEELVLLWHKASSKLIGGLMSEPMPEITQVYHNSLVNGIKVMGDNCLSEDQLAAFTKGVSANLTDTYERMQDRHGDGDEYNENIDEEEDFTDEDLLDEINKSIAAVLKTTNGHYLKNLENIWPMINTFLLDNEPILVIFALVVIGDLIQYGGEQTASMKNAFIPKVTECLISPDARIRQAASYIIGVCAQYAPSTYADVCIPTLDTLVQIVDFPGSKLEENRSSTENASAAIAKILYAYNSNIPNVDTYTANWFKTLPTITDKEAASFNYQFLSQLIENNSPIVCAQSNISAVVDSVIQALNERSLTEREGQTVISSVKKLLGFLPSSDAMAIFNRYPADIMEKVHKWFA

[2] = molecular target: T1, Kap121 (full-length) (Saccharomyces cerevisiae); assay: limited proteolysis; trypsin 1:25 (w/w) on ~5 μg 53C alone or in 1:1 molar complex with Kap121; 20 mM Hepes pH 7.5, 200 mM NaCl, 3 mM DTT; room temperature; 15 to 120 min; SDS-PAGE; both purified
Kap121 (full-length) = molecular target: T2, Kap121 (full-length) (Saccharomyces cerevisiae, UniProt P32337 1-1089); assay: ITC; single titrations, single-site 1:1 binding model where fitted; 20 mM Hepes pH 7.5, 150 mM NaCl, 0.5 mM TCEP; 15°C; Kap121 150 μM with Nup53 fragments 15 μM; both purified
T2 construct: Kap121 (karyopherin), Saccharomyces cerevisiae, full-length; source: E. coli BL21-CodonPlus(DE3)-RIL, purified (HisTrap HP, TEV cleavage, HiTrap Q, Superdex 200); not shown: SUMO-His6, N-terminal, cleaved
T2 sequence (looked up): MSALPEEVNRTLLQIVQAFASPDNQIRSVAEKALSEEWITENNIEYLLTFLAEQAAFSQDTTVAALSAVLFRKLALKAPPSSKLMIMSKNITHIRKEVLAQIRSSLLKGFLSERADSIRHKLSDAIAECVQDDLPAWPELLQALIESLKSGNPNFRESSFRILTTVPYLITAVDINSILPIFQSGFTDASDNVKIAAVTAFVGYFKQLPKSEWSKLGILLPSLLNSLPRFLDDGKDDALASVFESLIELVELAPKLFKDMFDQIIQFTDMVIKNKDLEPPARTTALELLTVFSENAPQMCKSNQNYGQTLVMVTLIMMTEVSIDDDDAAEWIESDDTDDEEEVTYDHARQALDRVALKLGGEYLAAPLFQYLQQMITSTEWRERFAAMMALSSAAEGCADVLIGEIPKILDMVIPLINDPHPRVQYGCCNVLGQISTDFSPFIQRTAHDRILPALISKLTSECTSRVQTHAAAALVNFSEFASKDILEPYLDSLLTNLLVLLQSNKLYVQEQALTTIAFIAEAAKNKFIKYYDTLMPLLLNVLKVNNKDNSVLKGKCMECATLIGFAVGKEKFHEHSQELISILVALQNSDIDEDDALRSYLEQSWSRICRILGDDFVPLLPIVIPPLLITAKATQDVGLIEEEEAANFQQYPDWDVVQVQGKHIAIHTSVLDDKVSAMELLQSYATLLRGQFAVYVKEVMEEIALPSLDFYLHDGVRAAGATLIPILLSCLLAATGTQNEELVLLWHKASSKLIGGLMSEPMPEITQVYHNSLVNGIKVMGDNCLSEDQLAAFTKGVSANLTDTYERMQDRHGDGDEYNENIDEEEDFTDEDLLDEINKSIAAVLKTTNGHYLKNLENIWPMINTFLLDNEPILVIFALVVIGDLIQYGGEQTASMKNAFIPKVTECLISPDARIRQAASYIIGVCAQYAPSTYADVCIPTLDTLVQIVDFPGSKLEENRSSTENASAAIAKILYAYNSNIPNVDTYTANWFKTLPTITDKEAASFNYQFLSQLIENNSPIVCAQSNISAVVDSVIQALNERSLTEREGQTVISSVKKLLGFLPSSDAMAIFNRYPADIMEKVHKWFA

[3] = molecular target: GST-tagged Nup53 C-terminal IDR (53C) (Saccharomyces cerevisiae); assay: pull-down; partially purified GST-tagged Nup53 fragments (~10 μg) immobilized on glutathione-Sepharose 4B; purified Nic96, 157N, 157C or Kap121 added in ~1.5 molar excess; 20 mM Hepes pH 7.5, 150 mM NaCl, 3 mM DTT; 1 hour at 4°C; SDS-PAGE, Coomassie; both purified

- binding [1]: binds
- binding [2]: binds
Molecule: Nup53 C-terminal IDR (53C) (Saccharomyces cerevisiae) (domain or fragment)

Molecule: Nup53 RRM domain (S. cerevisiae) (Saccharomyces cerevisiae) (domain or fragment)
- binding (Kap121 (full-length)): no binding (tested: Kap121 150 μM, Nup53 fragment 15 μM)

- binding [3]: binds
B1: Kap121 (full-length) (protein, UniProt P32337 1-1089)
chain: MSALPEEVNRTLLQIVQAFASPDNQIRSVAEKALSEEWITENNIEYLLTFLAEQAAFSQDTTVAALSAVLFRKLALKAPPSSKLMIMSKNITHIRKEVLAQIRSSLLKGFLSERADSIRHKLSDAIAECVQDDLPAWPELLQALIESLKSGNPNFRESSFRILTTVPYLITAVDINSILPIFQSGFTDASDNVKIAAVTAFVGYFKQLPKSEWSKLGILLPSLLNSLPRFLDDGKDDALASVFESLIELVELAPKLFKDMFDQIIQFTDMVIKNKDLEPPARTTALELLTVFSENAPQMCKSNQNYGQTLVMVTLIMMTEVSIDDDDAAEWIESDDTDDEEEVTYDHARQALDRVALKLGGEYLAAPLFQYLQQMITSTEWRERFAAMMALSSAAEGCADVLIGEIPKILDMVIPLINDPHPRVQYGCCNVLGQISTDFSPFIQRTAHDRILPALISKLTSECTSRVQTHAAAALVNFSEFASKDILEPYLDSLLTNLLVLLQSNKLYVQEQALTTIAFIAEAAKNKFIKYYDTLMPLLLNVLKVNNKDNSVLKGKCMECATLIGFAVGKEKFHEHSQELISILVALQNSDIDEDDALRSYLEQSWSRICRILGDDFVPLLPIVIPPLLITAKATQDVGLIEEEEAANFQQYPDWDVVQVQGKHIAIHTSVLDDKVSAMELLQSYATLLRGQFAVYVKEVMEEIALPSLDFYLHDGVRAAGATLIPILLSCLLAATGTQNEELVLLWHKASSKLIGGLMSEPMPEITQVYHNSLVNGIKVMGDNCLSEDQLAAFTKGVSANLTDTYERMQDRHGDGDEYNENIDEEEDFTDEDLLDEINKSIAAVLKTTNGHYLKNLENIWPMINTFLLDNEPILVIFALVVIGDLIQYGGEQTASMKNAFIPKVTECLISPDARIRQAASYIIGVCAQYAPSTYADVCIPTLDTLVQIVDFPGSKLEENRSSTENASAAIAKILYAYNSNIPNVDTYTANWFKTLPTITDKEAASFNYQFLSQLIENNSPIVCAQSNISAVVDSVIQALNERSLTEREGQTVISSVKKLLGFLPSSDAMAIFNRYPADIMEKVHKWFA
